PMC6898186
No constants are given. Whether binding was seen depends on the method and setting. In cells and extracts the contact can be indirect. Some binding calls cover weakened binding; strength is not graded here.

By UniProt entry, the sequences of proteins in these tests, tags left out.
UniProt P98170: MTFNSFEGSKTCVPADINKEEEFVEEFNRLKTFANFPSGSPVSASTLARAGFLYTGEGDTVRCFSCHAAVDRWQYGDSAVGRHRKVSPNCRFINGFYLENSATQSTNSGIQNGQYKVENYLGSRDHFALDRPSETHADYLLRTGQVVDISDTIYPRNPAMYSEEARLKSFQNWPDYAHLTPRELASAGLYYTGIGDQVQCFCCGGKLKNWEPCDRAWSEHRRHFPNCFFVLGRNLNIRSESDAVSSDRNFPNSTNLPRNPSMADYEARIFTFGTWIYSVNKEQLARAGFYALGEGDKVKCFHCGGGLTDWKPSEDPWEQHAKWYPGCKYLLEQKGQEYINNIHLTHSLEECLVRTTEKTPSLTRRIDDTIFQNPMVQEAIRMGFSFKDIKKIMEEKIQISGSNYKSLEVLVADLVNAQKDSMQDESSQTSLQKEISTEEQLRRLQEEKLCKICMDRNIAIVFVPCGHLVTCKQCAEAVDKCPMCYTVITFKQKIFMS
UniProt P08047: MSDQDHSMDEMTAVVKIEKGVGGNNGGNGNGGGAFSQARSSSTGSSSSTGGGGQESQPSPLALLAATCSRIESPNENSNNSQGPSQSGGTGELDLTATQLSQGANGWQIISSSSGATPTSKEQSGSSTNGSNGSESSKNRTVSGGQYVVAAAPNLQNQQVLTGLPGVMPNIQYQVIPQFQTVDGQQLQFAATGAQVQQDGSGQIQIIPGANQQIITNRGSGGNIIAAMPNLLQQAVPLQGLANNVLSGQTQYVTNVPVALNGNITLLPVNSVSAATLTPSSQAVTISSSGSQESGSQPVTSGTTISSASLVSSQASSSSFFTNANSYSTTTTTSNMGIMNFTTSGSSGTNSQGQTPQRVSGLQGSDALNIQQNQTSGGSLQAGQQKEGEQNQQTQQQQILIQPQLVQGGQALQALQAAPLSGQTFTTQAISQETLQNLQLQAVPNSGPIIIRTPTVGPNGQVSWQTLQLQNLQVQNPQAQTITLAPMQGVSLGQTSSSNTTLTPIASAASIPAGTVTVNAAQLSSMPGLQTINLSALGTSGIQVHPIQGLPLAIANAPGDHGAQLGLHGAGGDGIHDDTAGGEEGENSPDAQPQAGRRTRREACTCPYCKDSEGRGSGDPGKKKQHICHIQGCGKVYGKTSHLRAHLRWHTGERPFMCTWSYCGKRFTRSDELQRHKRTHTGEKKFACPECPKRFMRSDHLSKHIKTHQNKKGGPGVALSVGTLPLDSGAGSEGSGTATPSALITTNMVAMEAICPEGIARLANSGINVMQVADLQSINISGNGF

Experiments:
[1] = target: HA-tagged XIAP (X-linked inhibitor of apoptosis) (UniProt P98170); experiment: co-IP; anti-HA antibody-conjugated beads precipitate HA-XIAP or its HA-tagged fragments from lysates of T24T cells; immunoblot
GFP-tagged Sp1 = GFP-tagged Sp1 (UniProt P08047); experiment: co-IP; anti-GFP antibody-conjugated beads precipitate GFP-Sp1 from lysates of transfected T24T cells; immunoblot

Row | binding [1] | binding (GFP-tagged Sp1) | Substance
1 | binds |  | GFP-tagged Sp1 (from UniProt P08047 1-785)
2 |  | binds | HA-tagged XIAP (X-linked inhibitor of apoptosis) (from UniProt P98170 1-497)
3 | binds |  | Sp1 (from UniProt P08047 1-785)
